The target in test [1] is T1, Toll-like receptor-10 (human (endogenous in THP-1)) (UniProt Q9BXR5).
T1 sequence: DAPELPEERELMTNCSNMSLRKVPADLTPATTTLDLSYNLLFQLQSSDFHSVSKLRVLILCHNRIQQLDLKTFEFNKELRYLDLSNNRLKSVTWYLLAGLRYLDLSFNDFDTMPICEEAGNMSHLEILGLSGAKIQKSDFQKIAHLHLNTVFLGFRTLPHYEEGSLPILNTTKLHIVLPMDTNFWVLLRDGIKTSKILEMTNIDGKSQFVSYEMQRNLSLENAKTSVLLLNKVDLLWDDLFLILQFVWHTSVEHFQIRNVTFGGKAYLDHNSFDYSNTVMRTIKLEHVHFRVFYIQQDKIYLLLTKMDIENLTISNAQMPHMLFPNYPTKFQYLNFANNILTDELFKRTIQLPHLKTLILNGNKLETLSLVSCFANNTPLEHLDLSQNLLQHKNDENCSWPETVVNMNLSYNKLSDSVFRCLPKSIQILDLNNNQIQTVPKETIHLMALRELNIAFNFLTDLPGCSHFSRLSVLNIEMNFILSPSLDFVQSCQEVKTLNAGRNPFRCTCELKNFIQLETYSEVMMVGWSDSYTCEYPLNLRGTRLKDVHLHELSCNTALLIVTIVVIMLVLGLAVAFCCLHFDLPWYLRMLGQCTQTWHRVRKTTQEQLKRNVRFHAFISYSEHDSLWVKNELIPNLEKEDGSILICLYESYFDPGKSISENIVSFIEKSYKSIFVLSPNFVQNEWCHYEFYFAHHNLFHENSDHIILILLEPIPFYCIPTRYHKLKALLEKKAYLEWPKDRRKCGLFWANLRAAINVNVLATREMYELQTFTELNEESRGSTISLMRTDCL
Kind of test: co-IP; THP-1 cells transfected with 10 µg/ml poly(I:C), different time points; lysis in 50 mM Tris, 150 mM NaCl, 0.5% IGEPAL CA-630, pH 7.5; anti-TLR10 antibody (sc-30198) and Protein G agarose at 4°C; Western blotting with anti-MyD88 or anti-TRIF. Background: In western blotting, separated proteins are transferred to a membrane and probed.

Sequences of proteins named here, by UniProt entry; tags and fusion partners are left off.
UniProt Q99836: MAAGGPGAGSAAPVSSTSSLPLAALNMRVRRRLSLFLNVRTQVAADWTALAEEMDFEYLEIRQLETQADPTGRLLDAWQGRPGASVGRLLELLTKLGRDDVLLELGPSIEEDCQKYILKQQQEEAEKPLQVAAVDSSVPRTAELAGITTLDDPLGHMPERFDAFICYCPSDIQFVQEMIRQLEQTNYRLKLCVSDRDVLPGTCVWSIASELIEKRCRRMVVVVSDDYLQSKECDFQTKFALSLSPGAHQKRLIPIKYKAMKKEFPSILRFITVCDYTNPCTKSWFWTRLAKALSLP
UniProt Q8IUC6: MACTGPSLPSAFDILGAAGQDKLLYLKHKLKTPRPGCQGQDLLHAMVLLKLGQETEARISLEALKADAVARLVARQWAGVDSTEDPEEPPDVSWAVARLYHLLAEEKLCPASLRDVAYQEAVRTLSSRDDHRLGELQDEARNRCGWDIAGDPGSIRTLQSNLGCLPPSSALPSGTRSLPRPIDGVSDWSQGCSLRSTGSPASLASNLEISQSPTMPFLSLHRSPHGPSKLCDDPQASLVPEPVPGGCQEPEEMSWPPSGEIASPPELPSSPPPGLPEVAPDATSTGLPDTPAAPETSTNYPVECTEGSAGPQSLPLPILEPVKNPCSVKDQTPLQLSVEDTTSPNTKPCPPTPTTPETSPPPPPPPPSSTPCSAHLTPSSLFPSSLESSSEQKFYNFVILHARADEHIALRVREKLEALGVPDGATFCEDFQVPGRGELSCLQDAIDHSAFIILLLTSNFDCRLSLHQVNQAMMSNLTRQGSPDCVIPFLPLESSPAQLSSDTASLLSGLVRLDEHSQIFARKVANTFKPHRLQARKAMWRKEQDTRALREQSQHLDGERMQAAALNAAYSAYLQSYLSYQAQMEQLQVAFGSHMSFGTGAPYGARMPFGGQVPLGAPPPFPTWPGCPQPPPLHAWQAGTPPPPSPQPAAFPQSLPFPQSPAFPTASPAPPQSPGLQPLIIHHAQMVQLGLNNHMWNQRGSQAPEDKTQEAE

In test [2] the target is T1, Toll-like receptor-10 (human (endogenous in THP-1)). Kind of test: co-IP; THP-1 cells, mock transfection without poly(I:C); lysis in 50 mM Tris, 150 mM NaCl, 0.5% IGEPAL CA-630, pH 7.5; anti-TLR10 antibody (sc-30198) and Protein G agarose at 4°C; Western blotting with anti-MyD88.

These are yes or no findings as the source states them, for the method shown. In cells and extracts the contact can be indirect. Some results given as binding are weak or reduced against the parent protein; the word gives no strength.

Consider “myeloid differentiation primary response gene 88 (from UniProt Q99836 1-296)”, for which the binding result in test [1] is reported as “binds”; in test [2] it was “binds weakly”.
Turning to “TIR-domain-containing adaptor-inducing IFNβ (from UniProt Q8IUC6 1-712)”, in test [1], the binding result was “no binding”.

For the origin of these results see article PMC5865411.
